This is an account of results in PubChem BioAssay AID330 (DTP/NCI, 2004).

The list is a part of this screen's results and no random one: it gathers tests that were run many times, whatever their T/C, doses with no T/C, and many T/C values between a quarter and a half above the control. Further doses and runs are listed elsewhere. T/C: endpoint of the treated group in % of that of the vehicle group. Some entries give survivors of the animals treated and no T/C: the source files T/C as zero there, which appears to mark a toxic dose or a test without result, not a measured value. Some survivor counts are full or nearly so, which does not show that the dose was tolerated: the source hardly ever lists a survival T/C far under the control, and the zero likely stands for such cases as well. Survivors were counted at the toxicity check, usually on the fifth day, unless a day is given; later deaths do not show. Schedule codes are those of the source, read here as Q, the interval in days (D) or hours (H), X, the number of doses. Some doses were run more than once; the results are listed from low to high. Where survival is the endpoint, the PubChem record calls one and a half times the control and up active, and a quarter to a half above the control has no call in these data; cut-offs in other NCI protocols can differ. Brackets with × give the number of equal values in this list. Some T/C values carry the count of animals alive at the toxicity check (mostly the fifth day); without a count, all were alive then.

The test system of this assay is P388 leukemia ip, CD2F1 mice, survival T/C. Description: NCI In Vivo Anticancer Drug Screen. Data for tumor model P388 Leukemia (intraperitoneal) in CD2F1 (CDF1) mice. The note with it: T/C endpoint: median survival time, higher T/C = longer survival.
Where [1] appears, read: dose: 50.0 mg/kg/injection, schedule: Q01DX009 (ip), vehicle: saline.
Where [2] appears, read: dose: 100.0 mg/kg/injection, schedule: Q01DX009 (ip), vehicle: saline.
Setting [3] is: dose: 200.0 mg/kg/injection, schedule: Q01DX009 (ip), vehicle: water.
The mark [4] stands for this setting: dose: 120.0 mg/kg/injection, schedule: Q01DX005 (ip), vehicle: saline with Tween-80.
[5] abbreviates: dose: 240.0 mg/kg/injection, schedule: Q01DX005 (ip), vehicle: saline with Tween-80.
[6] abbreviates: dose: 100.0 mg/kg/injection, schedule: Q01DX005 (ip), vehicle: saline with Tween-80.
The mark [7] stands for this setting: dose: 200.0 mg/kg/injection, schedule: Q01DX005 (ip), vehicle: saline with Tween-80.
Where [8] appears, read: dose: 50.0 mg/kg/injection, schedule: Q01DX009 (ip), vehicle: Klucel (hydroxypropylcellulose) (HPC).

With `CCCCCCCCC[N+]1(CC)CCCC1`, the survivor count reads like this: under setting [1], 3 of 6; under setting [2], 0 of 6; (dose: 200.0 mg/kg/injection, schedule: Q01DX009 (ip), vehicle: saline) 0 of 6.
For the compound `Cc1cccc(/C=N/NC(N)=S)n1`, the survivor count was 3 of 6 (dose: 100.0 mg/kg/injection, schedule: Q04DX002 (ip), vehicle: saline with Tween-80); 0 of 6 (dose: 200.0 mg/kg/injection, schedule: Q04DX002 (ip), vehicle: saline with Tween-80); 0 of 6 (dose: 400.0 mg/kg/injection, schedule: Q04DX002 (ip), vehicle: saline with Tween-80).
On to `O=C(NC1CCCCC1(O)c1ccc([N+](=O)[O-])cc1)C(Cl)Cl` (stereo not given), for which the survivor count (dose: 400.0 mg/kg/injection, schedule: Q04DX002 (ip), vehicle: Klucel (hydroxypropylcellulose) (HPC)) is 6 of 6.
In the case of `CCCCNP(=O)(N1CC1)N1CC1`, the T/C was 130 % of control (dose: 1.5 mg/kg/injection, schedule: Q04DX003 (ip), vehicle: saline) and 145 % of control (dose: 3.0 mg/kg/injection, schedule: Q04DX003 (ip), vehicle: saline). Besides, the survivor count (dose: 25.0 mg/kg/injection, schedule: Q01DX009 (ip), vehicle: saline) is 6 of 6.
Regarding `N=C(N)c1ccc2oc(CCc3cc4ccc(C(=N)N)cc4[nH]3)cc2c1`, the T/C (dose: 25.0 mg/kg/injection, schedule: Q04DX003 (ip), vehicle: suspension in saline) was 129 and 141 % of control. In addition, the survivor count is, setting by setting: (dose: 50.0 mg/kg/injection, schedule: Q04DX003 (ip), vehicle: suspension in saline) 5 of 6; (dose: 100.0 mg/kg/injection, schedule: Q04DX003 (ip), vehicle: suspension in saline) 0 of 6; (dose: 200.0 mg/kg/injection, schedule: Q04DX003 (ip), vehicle: suspension in saline) 0 of 6; (dose: 400.0 mg/kg/injection, schedule: Q04DX003 (ip), vehicle: suspension in saline) 0 of 6.
Take `CC1(C)CC([P+](c2ccccc2)(c2ccccc2)c2ccccc2)=NN1`: the T/C runs as follows: (dose: 3.12 mg/kg/injection, schedule: Q01DX009 (ip), vehicle: saline with Tween-80) 130 % of control (2×); (dose: 6.25 mg/kg/injection, schedule: Q01DX009 (ip), vehicle: saline with Tween-80) 133 and 141 % of control; (dose: 12.5 mg/kg/injection, schedule: Q01DX009 (ip), vehicle: saline with Tween-80) 133 % of control. The survivor count by setting is: (dose: 25.0 mg/kg/injection, schedule: Q01DX009 (ip), vehicle: saline with Tween-80) 3 of 6; (dose: 50.0 mg/kg/injection, schedule: Q01DX001 (ip), vehicle: saline) 1 of 6 and 5 of 6; (dose: 100.0 mg/kg/injection, schedule: Q01DX001 (ip), vehicle: saline) 1 of 6; (dose: 200.0 mg/kg/injection, schedule: Q01DX001 (ip), vehicle: saline) 0 of 6.
As for `O=S(=O)(NC(=S)S)c1ccccc1`, under setting [3], the T/C is 128 and 135 % of control [5 of 6 alive]; the survivor count is 2 of 6. Besides, under “dose: 400.0 mg/kg/injection, schedule: Q01DX009 (ip), vehicle: water”, the survivor count is 0 of 6 and 1 of 6.
Turning to `Nc1nc(N)c2cc(CNc3ccc(C(=O)NC(CCC(=O)O)C(=O)O)cc3)cnc2n1` (stereo not given), the T/C was 125 % of control (dose: 0.25 mg/kg/injection, schedule: Q01DX005 (ip), vehicle: saline with Tween-80); 146 % of control (dose: 0.5 mg/kg/injection, schedule: Q01DX005 (ip), vehicle: saline with Tween-80); 146 % of control (dose: 1.0 mg/kg/injection, schedule: Q01DX005 (ip), vehicle: saline with Tween-80); 143 % of control (dose: 2.0 mg/kg/injection, schedule: Q01DX005 (ip), vehicle: saline with Tween-80). The survivor count reads like this: (dose: 4.0 mg/kg/injection, schedule: Q01DX005 (ip), vehicle: saline with Tween-80) 9 of 9; (dose: 8.0 mg/kg/injection, schedule: Q01DX005 (ip), vehicle: saline with Tween-80) 8 of 8.
Consider `O=C(CCl)Nc1cccc(CCC(=O)c2ccccc2NC(=O)CCl)c1`, for which the survivor count runs as follows: under setting [4], 3 of 6; under setting [5], 0 of 6.
With `COc1cc2c(cc1CN(C)C)[nH]c1c3ccc(Cl)cc3ncc21`, the survivor count is listed as 5 of 6 under setting [6] and 1 of 6 under setting [7].
For `CC[N+]1=C(C2=NCCc3ccccc32)c2ccccc2CC1` the same measures were 0 of 5 and 0 of 5.
`ClC1=CC(Cl)=C2N=C(C(Cl)(Cl)Cl)N=C3N=C(C(Cl)(Cl)Cl)N=C1N32`: the survivor count is reported as 1 of 6 (dose: 120.0 mg/kg/injection, schedule: Q01DX005 (ip), vehicle: Klucel + Tween-80) and 0 of 6 (dose: 240.0 mg/kg/injection, schedule: Q01DX005 (ip), vehicle: Klucel + Tween-80).
Turning to `O=C(NO)C(O)C(O)C(O)C(O)CO` (stereo not given), under setting [2], the survivor count is given as 6 of 6.
Turning to `c1cc[n+](CCC[n+]2ccccc2)cc1`, for the setting “dose: 400.0 mg/kg/injection, schedule: Q01DX009 (ip), vehicle: saline”, the survivor count is on record as 1 of 6.
Turning to `CC(C)(C)CC(C)(C)NC(=S)NC1C2CC3CC(C2)CC1C3` (stereo not given), where the note is “dose: 200.0 mg/kg/injection, schedule: Q01DX009 (ip), vehicle: Klucel (hydroxypropylcellulose) (HPC)”, the survivor count is reported as 6 of 6.
For `Cc1cc2c(cc1C)n1c(=O)n(C)c(=O)c(C#N)c1n2C`, the survivor count is, setting by setting: (dose: 30.0 mg/kg/injection, schedule: Q01DX005 (ip), vehicle: saline with Tween-80) 6 of 6; (dose: 60.0 mg/kg/injection, schedule: Q01DX005 (ip), vehicle: saline with Tween-80) 6 of 6; under setting [4], 6 of 6; under setting [5], 6 of 6.
In the case of `Cc1cc2c(C(C)C)c(O)c(O)c(C=Nc3ccc(C(=O)NCC(=O)O)cc3)c2c(O)c1-c1c(C)cc2c(C(C)C)c(O)c(O)c(C=Nc3ccc(C(=O)NCC(=O)O)cc3)c2c1O`, the survivor count under setting [7] is 6 of 6.
Consider `COc1cccc2c1C(=O)c1c(O)c3c(c(O)c1C2=O)C[C@](O)(C(=O)CO)CC3OC1CC(N)C(OC2CCCCO2)C(C)O1` (stereo not given in full), for which the T/C was 127 % of control [5 of 6 alive] (dose: 0.94 mg/kg/injection, schedule: Q01DX005 (ip), vehicle: water); 127 % of control (dose: 1.56 mg/kg/injection, schedule: Q04DX003 (ip), vehicle: water); 136 % of control (dose: 1.88 mg/kg/injection, schedule: Q01DX005 (ip), vehicle: water); 132 % of control (dose: 12.5 mg/kg/injection, schedule: Q04DX003 (ip), vehicle: water). For the same compound, the survivor count is on record as 10 of 10 (dose: 25.0 mg/kg/injection, schedule: Q04DX003 (ip), vehicle: water) and 4 of 10 (dose: 50.0 mg/kg/injection, schedule: Q04DX003 (ip), vehicle: water).
On to `CCNCCNc1cc(O)c2c(c1O)C(=O)c1ccccc1C2=O`, for which the T/C (dose: 200.0 mg/kg/injection, schedule: Q01DX005 (ip), vehicle: Klucel (hydroxypropylcellulose) (HPC)) was 128 % of control [4 of 6 alive].
For `CCC(=O)NC(CC(=O)O)c1cccs1` (stereo not given), the survivor count under setting [1] was 6 of 6.
As for `COc1ccc(OC)c(NC(=O)NC(c2ccccc2)c2ccccc2)c1`, the survivor count (dose: 12.5 mg/kg/injection, schedule: Q01DX009 (ip), vehicle: Klucel (hydroxypropylcellulose) (HPC)) is given as 6 of 6; the survivor count under setting [8] is given as 6 of 6; the survivor count (dose: 100.0 mg/kg/injection, schedule: Q01DX009 (ip), vehicle: Klucel (hydroxypropylcellulose) (HPC)) was 6 of 6.
Take `CCC[P+](C)(CCC#N)c1ccccc1` (stereo not given): the survivor count is on record as 4 of 6 (dose: 25.0 mg/kg/injection, schedule: Q01DX009 (ip), vehicle: Klucel (hydroxypropylcellulose) (HPC)) and 0 of 6 under setting [8].
